According to US20250144099A1, “INK4 TUMOR SUPPRESSOR PROTEINS MEDIATE RESISTANCE TO CDK4/6 KINASE INHIBITORS” (MEMORIAL SLOAN-KETTERING CANCER CENTER, priority 2021, published 2025):
For part of these data: At least one structure is not confirmed: it was looked up by name or label, or the drawing left a doubt. Some of these results come from one statement about several compounds together.

Sequences of proteins named here, by UniProt entry; tags and fusion partners are left off. A change or cut given only in a name is not applied to a line headed by its entry.
UniProt Q00534, whole entry: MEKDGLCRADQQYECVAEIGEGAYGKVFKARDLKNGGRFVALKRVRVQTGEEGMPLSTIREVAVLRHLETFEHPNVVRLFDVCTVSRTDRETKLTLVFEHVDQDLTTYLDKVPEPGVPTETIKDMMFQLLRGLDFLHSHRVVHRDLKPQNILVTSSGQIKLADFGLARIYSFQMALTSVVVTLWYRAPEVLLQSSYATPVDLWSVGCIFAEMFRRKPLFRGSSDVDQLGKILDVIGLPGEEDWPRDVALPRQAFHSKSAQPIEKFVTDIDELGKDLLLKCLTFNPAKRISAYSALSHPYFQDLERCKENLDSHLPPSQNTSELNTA
UniProt P11802: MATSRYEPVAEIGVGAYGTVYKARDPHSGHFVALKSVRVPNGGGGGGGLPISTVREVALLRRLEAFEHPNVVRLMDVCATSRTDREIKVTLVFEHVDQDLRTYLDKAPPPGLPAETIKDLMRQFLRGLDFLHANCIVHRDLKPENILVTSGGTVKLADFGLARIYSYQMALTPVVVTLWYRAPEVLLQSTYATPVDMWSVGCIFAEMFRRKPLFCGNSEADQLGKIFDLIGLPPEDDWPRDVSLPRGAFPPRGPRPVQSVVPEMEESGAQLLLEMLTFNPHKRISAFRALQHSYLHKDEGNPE

Tests used:
CDK6 = CDK6 (Homo sapiens, UniProt Q00534); assay: Immunoblotting of CDK6 degradation in cells; type: cell-based; design: MCF7 cells that lost FAT1 expression and with high CDK6 expression; endogenous in cells; host or cells: MCF-7 FAT1 loss cells (also MCF-7 parental); settings: 24 h
Description: (§1) Cell lysates were collected in RIPA buffer (Thermo Fisher Scientific) supplemented with protease and phosphatase inhibitors (Pierce). Protein concentration was quantified by using the BCA kit (Fisher Scientific). […] of protein lysates were loaded onto 4-12% SDS-PAGE gels (Invitrogen) for electrophoresis and transferred onto nitrocellular membranes. Blots were blocked with Intercept™ (TBS) Blocking Buffer (LI-COR Bioscience #927-60001) and incubated with primary antibody at 4° C. overnight. Secondary antibodies conjugated with fluorescence (LI-COR Bioscience #926-68071 and #926-32210) were incubated for 1 h at room temperature and blots were scanned by Odyssey Clx Imaging System from LI-COR Bioscience.

CDK4 = target: T1, CDK4 (Homo sapiens, UniProt P11802); assay: Immunoblotting of CDK4 degradation in cells; type: cell-based; settings: 24 h
T1 construct: CDK4 and CDK6 were immunoprecipitated from isogenic drug sensitive (MCF7 parental cells with low CDK6); endogenous in cells; host or cells: MCF-7 parental and MCF-7 FAT1 CRISPR knockout (CDK6-high) cells
Description: as §1

[1] = test system: PTEN knockdown MCF-7 cells; assay: Cell viability assay (Resazurin); type: cell-based, human; settings: IC50 recorded on day 5
[2] = test system: ARID1A knockdown MCF-7 cells; assay: Cell viability assay (Resazurin); type: cell-based, human; settings: IC50 recorded on day 7
[3] = test system: prostate cancer cell 22RV1; assay: Colony formation assay; type: cell-based; settings: 21 days treatment
[4] = test system: MCF-7 CDK6-high cells (FAT1 loss); assay: Cell viability assay (Resazurin); type: cell-based, human; settings: day 7
Description: Cell viability was measured by Resazurin (R&D Systems, Minneapolis, MN, USA) as described previously (51). Briefly, 1,500 cells were seeded in a 96-well plate and allowed to recover overnight. Cells were treated with drugs at day 0. Resazurin was added to the cells 4 hours prior to the measurements on day 3, day 5 and day 7. Fluorescent intensity was measured using a microplate reader (SpectraMax M5, Molecular Devices, Sunnyvale, CA, USA). IC50 was calculated by GraphPad Prism 7.0 using a sigmoidal regression model.

[5] = test system: T47D cells overexpressing p16INK4A; assay: Growth assay with inducible overexpression of p16; type: cell-based, human; settings: doxycycline-inducible p16

CC(=O)c1c(C)c2cnc(Nc3ccc(N4CCN(CCCCC(=O)N[C@H](C(=O)N5C[C@H](O)C[C@H]5C(=O)N[C@@H](C)c5ccc(-c6scnc6C)cc5)C(C)(C)C)CC4)cn3)nc2n(C2CCCC2)c1=O [BSJ-05-017, (2S,4R)-1-((S)-2-(5-(4-(6-((6-acetyl-8-cyclopentyl-5-methyl-7-oxo-7,8-dihydropyrido[2,3-d]pyrimidin-2-yl)amino)pyridin-3-yl)piperazin-1-yl)pentanamido)-3,3-dimethylbutanoyl)-4-hydroxy-N—((S)-1-(4-(4-methylthiazol-5-yl)phenyl)ethyl)pyrrolidine-2-carboxamide]
dose at which CDK6 is degraded (as low as) (CDK6): ≥ 10 nM | dose at which CDK4 is degraded (as low as) (CDK4): ≥ 10 nM

CCN1CCN(Cc2ccc(Nc3ncc(F)c(-c4cc(F)c5nc(C)n(C(C)C)c5c4)n3)nc2)CC1 [abemaciclib]
sensitivity compared to parental cells (cell viability) [1]: decreased sensitivity | sensitivity compared to parental cells (cell viability) [2]: decreased sensitivity

CC(=O)c1c(C)c2cnc(Nc3ccc(N4CCNCC4)cn3)nc2n(C2CCCC2)c1=O [palbociclib, reference compound]
colony formation [3]: some colonies formed | inhibition of cell growth [4]: partial inhibition | potency on overexpression of p16INK4A [5]: lowered the potency

CC(=O)c1c(C)c2cnc(Nc3ccc(N4CCN(CC5CCN(c6ccc7c(c6)C(=O)N(C6CCC(=O)NC6=O)C7=O)CC5)CC4)cn3)nc2n(C2CCCC2)c1=O (stereo not drawn) [BSJ-03-096, 5-(4-((4-(6-((6-acetyl-8-cyclopentyl-5-methyl-7-oxo-7,8-dihydropyrido[2,3-d]pyrimidin-2-yl)amino)pyridin-3-yl)piperazin-1-yl)methyl)piperidin-1-yl)-2-(2,6-dioxopiperidin-3-yl)isoindoline-1,3-dione]
dose at which CDK6 is degraded (as low as) (CDK6): ≥ 10 nM | dose at which CDK4 is degraded (as low as) (CDK4): ≥ 10 nM
